# PubChem BioAssay AID1347423 (Functional Genomics Laboratory (NCATS/FGL), 2020)
# In all, about 52,000 sequences went through this assay and about 210 (0.4%) were called active.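 Rule for the calls: active = gene whose silencing raises cell survival under the drug, median off-target-corrected z-score across its silencing RNAs 2 or more; inactive = the rest.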 Some of the results follow.
# Assay: Resistance to Poly (ADP-Ribose) Polymerase inhibitor: Gene Identification via Genome-wide siRNA Screen
# Details: mouse BRCA2 R2336H ES cells, olaparib, CellTiter-Glo viability; hits give high values
# Method in brief: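 Genome-wide siRNA screen (3 siRNAs/gene, 20 nM) in mouse ES cells carrying hypomorphic BRCA2 R2336H; olaparib 500 nM added 48 h post-transfection, CellTiter-Glo viability 72 h later. Normalized to plate-median negative control; MAD z-scores, gene median, seed-adjusted.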
row,Sequence,z-score
1,GGACUGUCAUCUUCCUCAGTT against 4933401N24Rik,inactive: -1.72
2,GGAGCUGGCUGACUUCAUUTT against Fcho1,inactive: -2.19
3,GGAGCCUCAUGAAAAAUGCTT against 9930014A18Rik,inactive: -0.404
4,GCUGAUGGCAGAGGAAACATT against Olfr213,inactive: -0.801
5,GGCGGAUAUCAAUACGAAATT against Rpl14,inactive: -2.98
6,GGUUUUCCUAAAGUCAACATT against Bfar,inactive: 0.203
7,CCAAUGCAAGUGCUACAGUTT against Zfp277,inactive: 0.967
8,GCCUCCAACUGAACAAAUUTT against Tnfrsf14,inactive: -2.44
9,CCCUAAAGCUUUAUAGUGCTT against Dub1a,inactive: 0.912
10,GCCAUCAACGUAUCUUACUTT against 4930548H24Rik,inactive: 2.17
11,GGAGAUUCUGUAGGUUAUUTT against Lrat,inactive: -0.278
12,CCGAAAUAAAGGAGUUGAUTT against 1110059F07Rik,inactive: 0.382
13,GGCAAAAUUAGCAUCAAAGTT against Slc22a3,inactive: 0.606
14,GGAUUCUAGGGUUGACAUUTT against Kb36,inactive: -0.537
15,GGUGGUAAUAGACAAACACTT against Dullard,inactive: 2.64
16,CCACUUGGAUGCAGUGAAGTT against Ehmt1,inactive: -1.5
17,GGUCAAGAAAAAGUUUCAGTT against Spag7,inactive: 1.63
18,GCGCCUUAACCAAGAAGUUTT against BC038311,inactive: -1
19,GUCCCAAUGCUCAAAAAAATT against Sf4,inactive: 0.467
20,GGAAGAUGAAGAGUCAGAGTT against BC035291,inactive: 1.38
21,GGCAAUCUUAUACUUAUGCTT against 1810037K07Rik,inactive: -0.95
22,GGGUGUGUUCUUAUCUCAUTT against Olfr921,inactive: 0.0249
23,GGUAUAUGGUGGGAACUUUTT against Bnipl,inactive: 0.451
24,GGAGAUGCUCGCUUUUUACTT against D730039F16Rik,inactive: 0.481
25,GAGAGUCGCGCGCUUUUAATT against Nxph4,inactive: -0.537
26,CCUACACCUUCAGUUUGAUTT against MGC118154,inactive: 0.0942
27,GCAAUAAAGAGUUCUGGCUTT against Cklfsf2a,inactive: -0.0464
28,GGCCUUAAGGUCCAUUAUCTT against 5730403M16Rik,inactive: 1.57

# An excerpt of these results, bar-delimited:
row | Sequence | z-score
1 | GGACUGUCAUCUUCCUCAGTT against 4933401N24Rik | inactive: -1.72
2 | GGAGCUGGCUGACUUCAUUTT against Fcho1 | inactive: -2.19
